Reference: patent US20190177366A1
Where a chain is given by its changes, count along the chain named. Results are given in words; binding and its absence hold for the method and conditions named. Binding calls can cover weak binding; strength is not graded here. Blank lines part the entries; values can stand above or below the binder they belong to.

Chains of the proteins cited; added tags and fusions are not shown. Lines headed by an entry give the natural chain unless they say otherwise; changes in a name come on top.
UniProt Q8NBP7: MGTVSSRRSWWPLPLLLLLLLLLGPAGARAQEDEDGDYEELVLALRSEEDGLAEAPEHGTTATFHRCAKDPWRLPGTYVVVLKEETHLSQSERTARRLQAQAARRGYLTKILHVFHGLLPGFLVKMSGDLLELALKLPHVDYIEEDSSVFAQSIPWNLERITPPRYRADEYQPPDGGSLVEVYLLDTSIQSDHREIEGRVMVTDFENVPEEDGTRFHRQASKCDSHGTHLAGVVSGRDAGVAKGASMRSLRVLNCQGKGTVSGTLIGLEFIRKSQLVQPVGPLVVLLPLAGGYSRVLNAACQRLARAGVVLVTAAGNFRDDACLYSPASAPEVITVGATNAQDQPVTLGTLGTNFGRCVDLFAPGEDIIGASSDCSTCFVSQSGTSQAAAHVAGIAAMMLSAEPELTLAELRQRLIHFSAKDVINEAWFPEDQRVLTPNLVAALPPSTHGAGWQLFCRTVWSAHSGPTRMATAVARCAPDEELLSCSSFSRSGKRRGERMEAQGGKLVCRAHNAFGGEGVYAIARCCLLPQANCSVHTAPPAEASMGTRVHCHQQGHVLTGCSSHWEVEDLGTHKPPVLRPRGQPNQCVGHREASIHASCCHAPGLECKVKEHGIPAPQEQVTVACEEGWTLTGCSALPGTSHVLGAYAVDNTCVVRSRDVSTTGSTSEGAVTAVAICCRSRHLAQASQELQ

Tests used:
PCSK9Δhelix (human) [1] = biological target: PCSK9Δhelix (human) (UniProt Q8NBP7); experiment: phage competition ELISA
PCSK9Δhelix (human) [2] = biological target: PCSK9Δhelix (human) (UniProt Q8NBP7); experiment: SPR
PCSK9Δhelix (human) [3] = biological target: PCSK9Δhelix (human) (UniProt Q8NBP7); experiment: TR-FRET competition, Ab20 as competitor
PCSK9Δhelix (human) [4] = biological target: PCSK9Δhelix (human) (UniProt Q8NBP7); experiment: Ab20 TR-FRET assay and SPR
PCSK9Δhelix (human) [5] = biological target: PCSK9Δhelix (human) (UniProt Q8NBP7); experiment: phage spot ELISA

B1: Compound 19 (peptide)
peptide: TVFTSWEEYLDWVGSGCRLPWNLQRIGLPC
modifications: N-terminal acetyl; C-terminal amide; disulfide-linked extension
- binding (PCSK9Δhelix (human) [1]): binds
- binding (PCSK9Δhelix (human) [2]): binds
- binding (PCSK9Δhelix (human) [3]): binds

B2: Compound 1 (peptide)
peptide: TVFTSWEEYLDWVGSGKLWNLGRV
modifications: N-terminal acetyl; C-terminal amide
- binding (PCSK9Δhelix (human) [3]): binds

B4: Compound 50 (peptide)
peptide: LMPWNLVRIGLLR
modifications: N-terminal acetyl; C-terminal amide
- binding (PCSK9Δhelix (human) [4]): binds

B8: Compound 14 (peptide)
peptide: TVFTSWEEYLDWVGSGGCWNLKRIGSQGC
modifications: N-terminal acetyl; C-terminal amide; disulfide-linked extension
- binding (PCSK9Δhelix (human) [3]): binds

B9: Compound 51 (peptide)
peptide: MPWNLVRIGLLR
modifications: N-terminal acetyl; C-terminal amide
- binding (PCSK9Δhelix (human) [4]): binds

B12: Compound 35 (peptide)
peptide: DLMPWNLVRIGLLR
modifications: N-terminal acetyl; C-terminal amide
- binding (PCSK9Δhelix (human) [3]): binds

B13: Compound 25 (peptide)
peptide: TVFTSWEEYLDWVGSGGCRLPWNLQRIGLPC
modifications: N-terminal acetyl; C-terminal amide; disulfide-linked extension
- binding (PCSK9Δhelix (human) [3]): binds

B14: Compound 38 (peptide)
peptide: B13 peptide with R19F, P30L
modifications: N-terminal acetyl; C-terminal amide; disulfide-linked extension
- binding (PCSK9Δhelix (human) [3]): binds

B15: Compound 20 (peptide)
peptide: TVFTSWEEYLDWVGSGDLMPWNLVRIGLLR
modifications: N-terminal acetyl; C-terminal amide
- binding (PCSK9Δhelix (human) [1]): binds
- binding (PCSK9Δhelix (human) [2]): binds
- binding (PCSK9Δhelix (human) [3]): binds

B16: Compound 2 (peptide)
peptide: TVFTSWEEYLDWVGSGCWNLKRIGSQGC
modifications: N-terminal acetyl; C-terminal amide; disulfide C17-C28
- binding (PCSK9Δhelix (human) [2]): binds

B17: K9gvpep7 (peptide)
peptide: SGDLMPWNLVRIGLLR
- binding (PCSK9Δhelix (human) [1]): binds

B18: K9gvpep4 (peptide)
peptide: SGCRLPWNLQRIGLPC
- binding (PCSK9Δhelix (human) [1]): binds

B20: Compound 6 (peptide)
peptide: TVFTSWEEYLDWVGSGKLWNL
modifications: N-terminal acetyl; C-terminal amide
- binding (PCSK9Δhelix (human) [3]): binds

B21: Compound 32 (peptide)
peptide: CRLPWNLQRIGLPC
modifications: N-terminal acetyl; C-terminal amide; disulfide-constrained macrocycle
- binding (PCSK9Δhelix (human) [2]): binds
- binding (PCSK9Δhelix (human) [3]): binds

B22: Compound 7 (peptide)
peptide: TVFTSWEEYLDWVGSGKLWN
modifications: N-terminal acetyl; C-terminal amide
- binding (PCSK9Δhelix (human) [3]): binds

B24: Compound 13 (peptide)
peptide: TVFTSWEEYLDWVGGSGCWNLKRIGSQGC
modifications: N-terminal acetyl; C-terminal amide; disulfide-linked extension
- binding (PCSK9Δhelix (human) [3]): binds

B25: Compound 4 (peptide)
peptide: TVFTSWEEYLDWVGSGKLWNLGR
modifications: N-terminal acetyl; C-terminal amide
- binding (PCSK9Δhelix (human) [3]): binds

More lines, now with the values ahead:

- binding (PCSK9Δhelix (human) [3]): binds
B3: Compound 67 (peptide)
peptide: CRLPWNLKRIGLPC
modifications: N-terminal acetyl; C-terminal amide; disulfide-cyclized

- binding (PCSK9Δhelix (human) [5]): binds
B5: SEQ ID NO 379 (peptide)
chain: SGNALWNHDRLT

- binding (PCSK9Δhelix (human) [5]): binds
B6: SEQ ID NO 382 (peptide)
chain: SGGSIPWNLERITPPR

- binding (PCSK9Δhelix (human) [5]): binds
B7: SEQ ID NO 380 (peptide)
chain: SGRNGSGYINRGIEIW

- binding (PCSK9Δhelix (human) [4]): binds
B10: Compound 52 (peptide)
peptide: PWNLVRIGLLR
modifications: N-terminal acetyl; C-terminal amide

- binding (PCSK9Δhelix (human) [5]): binds
B11: SEQ ID NO 381 (peptide)
chain: SGHASKGMVLSG

- binding (PCSK9Δhelix (human) [2]): binds
B19: Compound 73 (peptide)
peptide: CRLPWNLARIGLPC
modifications: N-terminal acetyl; C-terminal amide; disulfide-cyclized

- binding (PCSK9Δhelix (human) [5]): binds
B23: SEQ ID NO 378 (peptide)
chain: SGVCSDHYIGGKEVRC

- binding (PCSK9Δhelix (human) [3]): binds
B26: Compound 63 (peptide)
peptide: MCLWNLKRIGSQCEY
modifications: N-terminal acetyl; C-terminal amide; disulfide-cyclized
